Data taken from the supplement of paper PMC10849652.
The list shows a part of the results.

Sequences of proteins named here, by UniProt entry; tags and fusion partners are left off. A change or cut given only in a name is not applied to a line headed by its entry.
UniProt Q96A29: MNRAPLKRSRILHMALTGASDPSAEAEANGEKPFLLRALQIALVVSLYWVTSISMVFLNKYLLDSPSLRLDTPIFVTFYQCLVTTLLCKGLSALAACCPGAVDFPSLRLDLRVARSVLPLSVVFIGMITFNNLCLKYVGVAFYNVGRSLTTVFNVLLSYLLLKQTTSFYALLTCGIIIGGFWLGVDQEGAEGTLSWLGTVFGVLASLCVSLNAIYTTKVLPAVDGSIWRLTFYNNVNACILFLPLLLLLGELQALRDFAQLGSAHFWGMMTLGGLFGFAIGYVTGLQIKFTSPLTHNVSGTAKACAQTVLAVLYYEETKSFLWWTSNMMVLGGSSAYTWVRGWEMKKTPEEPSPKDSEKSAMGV
UniProt Q8N8R3: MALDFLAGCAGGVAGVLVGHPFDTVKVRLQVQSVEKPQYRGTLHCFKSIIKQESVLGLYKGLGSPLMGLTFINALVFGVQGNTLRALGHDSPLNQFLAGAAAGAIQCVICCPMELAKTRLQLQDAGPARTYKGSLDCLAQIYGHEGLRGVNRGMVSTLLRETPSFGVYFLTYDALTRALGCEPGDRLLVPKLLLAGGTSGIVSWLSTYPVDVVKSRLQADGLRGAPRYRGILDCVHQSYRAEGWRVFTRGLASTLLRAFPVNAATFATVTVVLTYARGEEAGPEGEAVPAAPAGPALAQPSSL
UniProt Q8N697: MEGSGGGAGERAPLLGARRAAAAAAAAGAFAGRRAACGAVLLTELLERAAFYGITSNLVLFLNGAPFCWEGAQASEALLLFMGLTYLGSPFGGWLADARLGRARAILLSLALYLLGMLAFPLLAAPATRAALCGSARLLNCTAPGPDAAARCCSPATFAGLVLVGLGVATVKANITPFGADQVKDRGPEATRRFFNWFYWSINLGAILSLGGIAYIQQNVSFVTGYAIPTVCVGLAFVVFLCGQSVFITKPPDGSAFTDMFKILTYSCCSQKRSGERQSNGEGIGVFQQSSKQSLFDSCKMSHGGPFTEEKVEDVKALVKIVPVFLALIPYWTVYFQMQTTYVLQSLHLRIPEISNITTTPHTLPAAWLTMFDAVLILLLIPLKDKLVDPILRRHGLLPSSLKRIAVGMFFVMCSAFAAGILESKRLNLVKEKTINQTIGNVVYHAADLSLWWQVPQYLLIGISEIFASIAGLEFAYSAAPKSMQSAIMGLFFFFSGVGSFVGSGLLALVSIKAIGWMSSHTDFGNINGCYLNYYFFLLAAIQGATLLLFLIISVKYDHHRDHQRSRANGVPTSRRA
UniProt O95258: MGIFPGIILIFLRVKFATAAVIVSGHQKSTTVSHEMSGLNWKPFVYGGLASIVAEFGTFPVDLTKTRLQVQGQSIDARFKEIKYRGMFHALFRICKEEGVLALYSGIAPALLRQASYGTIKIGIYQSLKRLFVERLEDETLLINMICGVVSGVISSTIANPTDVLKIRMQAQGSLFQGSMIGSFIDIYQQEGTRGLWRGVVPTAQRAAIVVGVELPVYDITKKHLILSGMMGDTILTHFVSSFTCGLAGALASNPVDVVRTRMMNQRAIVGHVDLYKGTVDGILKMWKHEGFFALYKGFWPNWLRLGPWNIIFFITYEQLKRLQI
UniProt Q7Z769: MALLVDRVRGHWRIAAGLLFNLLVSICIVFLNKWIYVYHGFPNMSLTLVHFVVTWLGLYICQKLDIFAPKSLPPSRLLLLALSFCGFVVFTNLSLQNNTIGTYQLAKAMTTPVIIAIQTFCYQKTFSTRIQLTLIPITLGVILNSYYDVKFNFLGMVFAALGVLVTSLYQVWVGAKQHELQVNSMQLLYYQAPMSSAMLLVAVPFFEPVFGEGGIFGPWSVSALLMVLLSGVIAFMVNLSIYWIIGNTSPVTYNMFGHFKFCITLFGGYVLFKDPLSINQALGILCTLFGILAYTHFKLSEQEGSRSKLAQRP
UniProt Q9NUM3: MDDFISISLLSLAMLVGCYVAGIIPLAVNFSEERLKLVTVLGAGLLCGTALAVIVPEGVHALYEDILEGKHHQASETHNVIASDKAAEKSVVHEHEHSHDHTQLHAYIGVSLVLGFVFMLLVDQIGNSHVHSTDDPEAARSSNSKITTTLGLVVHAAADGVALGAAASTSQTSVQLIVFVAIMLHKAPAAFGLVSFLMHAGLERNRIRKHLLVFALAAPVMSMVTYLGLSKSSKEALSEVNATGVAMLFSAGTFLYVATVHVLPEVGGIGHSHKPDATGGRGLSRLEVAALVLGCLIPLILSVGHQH
UniProt F5GZS6: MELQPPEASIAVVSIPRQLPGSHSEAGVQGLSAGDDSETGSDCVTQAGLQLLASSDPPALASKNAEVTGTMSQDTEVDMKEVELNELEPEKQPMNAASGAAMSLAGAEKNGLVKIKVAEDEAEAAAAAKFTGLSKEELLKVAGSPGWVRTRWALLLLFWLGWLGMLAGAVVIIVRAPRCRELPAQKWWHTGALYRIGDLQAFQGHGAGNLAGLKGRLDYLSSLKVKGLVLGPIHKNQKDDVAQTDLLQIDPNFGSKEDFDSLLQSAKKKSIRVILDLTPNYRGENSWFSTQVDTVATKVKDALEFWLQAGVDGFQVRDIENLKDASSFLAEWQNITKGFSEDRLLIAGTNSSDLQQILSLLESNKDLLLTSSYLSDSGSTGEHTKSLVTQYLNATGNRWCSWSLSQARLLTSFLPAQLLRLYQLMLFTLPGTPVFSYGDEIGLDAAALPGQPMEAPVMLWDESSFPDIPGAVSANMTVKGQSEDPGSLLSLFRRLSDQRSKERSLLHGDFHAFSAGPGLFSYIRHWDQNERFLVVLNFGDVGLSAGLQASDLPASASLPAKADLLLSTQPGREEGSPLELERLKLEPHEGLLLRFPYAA
UniProt Q8N2U9: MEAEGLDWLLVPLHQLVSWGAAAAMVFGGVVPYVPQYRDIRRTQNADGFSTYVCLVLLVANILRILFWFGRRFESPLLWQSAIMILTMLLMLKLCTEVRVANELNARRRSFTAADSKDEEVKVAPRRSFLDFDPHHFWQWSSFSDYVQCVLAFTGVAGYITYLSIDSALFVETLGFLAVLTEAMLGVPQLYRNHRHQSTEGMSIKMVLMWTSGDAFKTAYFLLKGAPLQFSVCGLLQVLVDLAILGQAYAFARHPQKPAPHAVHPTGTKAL
UniProt O76082: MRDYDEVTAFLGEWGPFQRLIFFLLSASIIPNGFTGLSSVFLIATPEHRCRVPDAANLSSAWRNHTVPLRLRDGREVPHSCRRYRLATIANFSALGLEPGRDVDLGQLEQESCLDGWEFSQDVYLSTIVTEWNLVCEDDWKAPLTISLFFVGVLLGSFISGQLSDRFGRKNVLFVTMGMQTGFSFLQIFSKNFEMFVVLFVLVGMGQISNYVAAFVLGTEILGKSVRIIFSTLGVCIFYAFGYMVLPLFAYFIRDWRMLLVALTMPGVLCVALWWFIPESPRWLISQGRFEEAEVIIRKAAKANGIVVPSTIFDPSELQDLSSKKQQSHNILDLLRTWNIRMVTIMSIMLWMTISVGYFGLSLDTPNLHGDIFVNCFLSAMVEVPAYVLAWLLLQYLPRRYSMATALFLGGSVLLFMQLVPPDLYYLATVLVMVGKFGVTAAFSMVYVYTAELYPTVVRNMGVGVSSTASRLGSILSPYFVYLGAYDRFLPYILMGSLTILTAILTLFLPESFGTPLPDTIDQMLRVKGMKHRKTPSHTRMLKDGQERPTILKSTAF
UniProt Q9NQQ7: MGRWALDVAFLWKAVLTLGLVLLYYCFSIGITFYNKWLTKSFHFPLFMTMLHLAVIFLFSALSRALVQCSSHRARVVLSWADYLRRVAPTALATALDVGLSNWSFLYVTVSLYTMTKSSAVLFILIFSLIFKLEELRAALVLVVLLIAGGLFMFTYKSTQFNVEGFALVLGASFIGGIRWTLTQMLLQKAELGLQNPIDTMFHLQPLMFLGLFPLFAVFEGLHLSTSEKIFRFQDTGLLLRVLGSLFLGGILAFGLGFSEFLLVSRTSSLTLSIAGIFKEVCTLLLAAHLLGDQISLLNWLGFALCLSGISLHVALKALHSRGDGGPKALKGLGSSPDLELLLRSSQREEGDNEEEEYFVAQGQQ
UniProt A1A5C7: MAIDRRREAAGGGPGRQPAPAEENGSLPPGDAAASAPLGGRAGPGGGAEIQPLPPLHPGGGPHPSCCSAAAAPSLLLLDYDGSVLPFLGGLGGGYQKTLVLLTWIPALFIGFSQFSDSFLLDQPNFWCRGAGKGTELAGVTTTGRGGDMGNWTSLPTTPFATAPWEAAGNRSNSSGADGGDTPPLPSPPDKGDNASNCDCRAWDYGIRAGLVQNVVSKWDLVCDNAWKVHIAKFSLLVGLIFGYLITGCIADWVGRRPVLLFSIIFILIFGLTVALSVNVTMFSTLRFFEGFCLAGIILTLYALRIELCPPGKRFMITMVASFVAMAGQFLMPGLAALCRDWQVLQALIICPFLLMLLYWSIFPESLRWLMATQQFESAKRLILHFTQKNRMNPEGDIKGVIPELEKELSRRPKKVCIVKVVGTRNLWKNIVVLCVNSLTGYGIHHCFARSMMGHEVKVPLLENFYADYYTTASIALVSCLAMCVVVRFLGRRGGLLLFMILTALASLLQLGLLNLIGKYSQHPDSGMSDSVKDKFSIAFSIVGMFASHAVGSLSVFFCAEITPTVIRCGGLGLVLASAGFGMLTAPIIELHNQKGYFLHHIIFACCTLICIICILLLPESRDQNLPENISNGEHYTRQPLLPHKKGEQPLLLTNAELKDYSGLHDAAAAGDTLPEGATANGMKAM
UniProt Q9HAB3: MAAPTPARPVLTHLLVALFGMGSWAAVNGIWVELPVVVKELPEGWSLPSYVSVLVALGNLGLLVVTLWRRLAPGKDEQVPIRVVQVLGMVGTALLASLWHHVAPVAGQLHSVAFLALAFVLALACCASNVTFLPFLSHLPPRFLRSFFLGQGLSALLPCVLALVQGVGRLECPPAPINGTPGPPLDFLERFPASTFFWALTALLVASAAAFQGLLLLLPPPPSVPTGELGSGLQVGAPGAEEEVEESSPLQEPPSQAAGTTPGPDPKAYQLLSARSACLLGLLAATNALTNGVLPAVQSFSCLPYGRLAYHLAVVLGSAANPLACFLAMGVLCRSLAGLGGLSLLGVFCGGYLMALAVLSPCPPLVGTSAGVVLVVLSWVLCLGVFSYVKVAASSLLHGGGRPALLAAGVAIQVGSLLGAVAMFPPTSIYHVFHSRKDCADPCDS
UniProt Q9BS91: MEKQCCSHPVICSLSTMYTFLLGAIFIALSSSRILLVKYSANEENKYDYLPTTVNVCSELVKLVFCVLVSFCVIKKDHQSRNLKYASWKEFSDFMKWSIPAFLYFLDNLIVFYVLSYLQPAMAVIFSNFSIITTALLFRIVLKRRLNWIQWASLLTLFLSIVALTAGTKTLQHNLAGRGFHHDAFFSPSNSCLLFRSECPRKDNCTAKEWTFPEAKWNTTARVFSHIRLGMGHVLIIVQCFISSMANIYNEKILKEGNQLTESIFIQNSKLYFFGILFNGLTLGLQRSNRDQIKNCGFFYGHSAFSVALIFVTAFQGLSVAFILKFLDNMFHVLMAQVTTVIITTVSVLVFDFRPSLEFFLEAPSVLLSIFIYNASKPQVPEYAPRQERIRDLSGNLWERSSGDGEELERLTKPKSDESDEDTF
UniProt P43003, whole entry, looked up: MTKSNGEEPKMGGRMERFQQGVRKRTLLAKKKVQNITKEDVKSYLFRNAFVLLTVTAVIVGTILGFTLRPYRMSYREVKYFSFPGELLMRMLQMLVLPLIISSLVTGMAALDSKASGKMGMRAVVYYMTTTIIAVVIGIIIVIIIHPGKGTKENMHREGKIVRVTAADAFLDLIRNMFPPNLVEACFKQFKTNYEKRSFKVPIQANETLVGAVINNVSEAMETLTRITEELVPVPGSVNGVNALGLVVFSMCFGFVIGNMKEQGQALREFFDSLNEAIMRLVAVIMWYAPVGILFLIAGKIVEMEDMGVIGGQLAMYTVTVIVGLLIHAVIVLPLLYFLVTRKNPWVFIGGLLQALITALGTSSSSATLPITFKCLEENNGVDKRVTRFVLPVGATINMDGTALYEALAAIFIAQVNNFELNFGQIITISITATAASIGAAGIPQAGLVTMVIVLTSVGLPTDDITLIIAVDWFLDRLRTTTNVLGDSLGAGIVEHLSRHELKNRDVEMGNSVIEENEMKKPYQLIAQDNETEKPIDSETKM
UniProt Q6YBV0: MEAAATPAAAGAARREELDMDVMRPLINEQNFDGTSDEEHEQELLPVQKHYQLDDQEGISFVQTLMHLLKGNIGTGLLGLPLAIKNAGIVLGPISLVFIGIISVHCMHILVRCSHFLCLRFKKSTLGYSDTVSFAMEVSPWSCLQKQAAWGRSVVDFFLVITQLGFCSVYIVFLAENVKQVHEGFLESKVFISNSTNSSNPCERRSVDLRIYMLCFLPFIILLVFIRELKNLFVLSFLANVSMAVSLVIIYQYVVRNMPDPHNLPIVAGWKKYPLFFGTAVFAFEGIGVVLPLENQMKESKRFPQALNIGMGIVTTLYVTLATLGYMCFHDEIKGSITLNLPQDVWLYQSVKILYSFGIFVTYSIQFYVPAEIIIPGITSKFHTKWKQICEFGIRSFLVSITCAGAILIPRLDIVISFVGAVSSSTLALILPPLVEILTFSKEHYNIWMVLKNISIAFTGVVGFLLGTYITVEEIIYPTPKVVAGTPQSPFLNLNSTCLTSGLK

Columns and labels:
Test in all cases: log2 fold change, soluble protein after heating vs DMSO (PISA); higher = thermal stabilisation; K562 cells, 10 uM, 30 min; active = over 0.2 and 3.5 SD of the protein, either way, in both replicates (recomputed)
[1] = compound: CS(=O)(=O)c1ccc(-c2cnc(N)c(C(=O)Nc3ccccc3)n2)cc1
In short: (§1)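 K562 cells at 2×10^6 cells/mL were treated with 10 μM compound for 30 min. Aliquots were heated for 3 min across 48°C-58°C, pooled, and extracted in PBS with 0.5% NP-40 at 4°C; soluble protein was the supernatant after 21,000xg for 90 min. Soluble protein was quantified by TMTpro 16plex LC-MS/MS with channel sums equalised, and reported as log2 fold change in thermal stability against DMSO controls, with values from duplicates.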

[2] = compound: C[C@H](C1=CC=C(C=C1)C(=O)NC2=C3C=CNC3=NC=C2)N
In short: as §1

gandotinib = compound: Cc1cc(Nc2cc(CN3CCOCC3)c3nc(C)c(Cc4ccc(Cl)cc4F)n3n2)n[nH]1 [gandotinib]
In short: as §1

tozasertib = compound: Cc1cc(Nc2cc(N3CCN(C)CC3)nc(Sc3ccc(NC(=O)C4CC4)cc3)n2)n[nH]1 [tozasertib]
In short: as §1

ispinesib = compound: Cc1ccc(C(=O)N(CCCN)[C@@H](c2nc3cc(Cl)ccc3c(=O)n2Cc2ccccc2)C(C)C)cc1 [ispinesib]
In short: as §1

bafetinib = compound: Cc1ccc(NC(=O)c2ccc(CN3CC[C@H](N(C)C)C3)c(C(F)(F)F)c2)cc1Nc1nccc(-c2cncnc2)n1 [bafetinib]
In short: as §1

[3] = compound: Cc1cccc(CC(=O)N2CCc3c2ccc(-c2cn(C)c4ncnc(N)c24)c3F)n1
In short: as §1

nilotinib = compound: Cc1cn(-c2cc(NC(=O)c3ccc(C)c(Nc4nccc(-c5cccnc5)n4)c3)cc(C(F)(F)F)c2)cn1 [nilotinib]
In short: as §1

[4] = compound: Cc1nc(Nc2n[nH]c3c2CN(C(=O)N[C@H](CN(C)C)c2ccccc2)C3(C)C)c2sccc2n1
In short: as §1

[5] = compound: Cc1ncc(-c2ccnc(Nc3ccc(S(C)(=O)=O)cc3)n2)n1C(C)C
In short: as §1

[6] = compound: Cn1cc(-c2ccc3c(c2)CCN3C(=O)Cc2cccc(C(F)(F)F)c2)c2c(N)ncnc21
In short: as §1

[7] = compound: Cn1cc(-c2ccc3nnc(C(F)(F)c4ccc5ncccc5c4)n3n2)cn1
In short: as §1

tipifarnib = compound: Cn1cncc1[C@@](N)(c1ccc(Cl)cc1)c1ccc2c(c1)c(-c1cccc(Cl)c1)cc(=O)n2C [tipifarnib]
In short: as §1

mubritinib = compound: FC(F)(F)c1ccc(/C=C/c2nc(COc3ccc(CCCCn4ccnn4)cc3)co2)cc1 [mubritinib]
In short: as §1

crizotinib = compound: C[C@@H](Oc1cc(-c2cnn(C3CCNCC3)c2)cnc1N)c1c(Cl)ccc(F)c1Cl [crizotinib]
In short: as §1

[8] = compound: C[C@@H]1COCCN1C2=NC(=NC(=C2)C3(CC3)S(=O)(=O)C)C4=C5C=CNC5=CC=C4
In short: as §1

duvelisib = compound: C[C@H](Nc1ncnc2nc[nH]c12)c1cc2cccc(Cl)c2c(=O)n1-c1ccccc1 [duvelisib]
In short: as §1

[9] = compound: Cc1cc(SCc2sc(-c3ccc(C(F)(F)F)cc3)nc2C)ccc1OCC(=O)O
In short: as §1

doramapimod = compound: Cc1ccc(-n2nc(C(C)(C)C)cc2NC(=O)Nc2ccc(OCCN3CCOCC3)c3ccccc23)cc1 [doramapimod]
In short: as §1

dasatinib = compound: Cc1nc(Nc2ncc(C(=O)Nc3c(C)cccc3Cl)s2)cc(N2CCN(CCO)CC2)n1 [dasatinib]
In short: as §1

Measured: log2 fold change

SLC2A4 (UniProt P14672)
inactive: [1] -0.077 | [2] -0.048 | gandotinib -0.048 | tozasertib -0.1 | ispinesib -0.22 | bafetinib -0.223 | [3] -0.023 | nilotinib 0.066 | [4] 0.126 | [5] 0.19 | [6] 0.004 | [7] -0.087 | tipifarnib -0.151 | mubritinib 0.084

SLC35C1 (UniProt Q96A29)
inactive: crizotinib -0.044 | [8] -0.365 | [2] 0.036 | duvelisib 0.042 | gandotinib -0.048 | tozasertib 0.04 | [9] 0.074 | doramapimod 0.016 | ispinesib -0.114 | bafetinib -0.002 | [3] -0.062 | nilotinib -0.003 | [4] 0.085 | dasatinib 0.067 | [5] -0.16 | [6] 0.043 | [7] -0.089 | tipifarnib 0.061

SLC25A29 (UniProt Q8N8R3)
inactive: crizotinib 0.014 | duvelisib 0.015 | tozasertib -0.08 | [9] 0.201 | doramapimod 0.074 | ispinesib -0.344 | dasatinib -0.032 | [7] 0.006 | tipifarnib -0.257

SLC15A4 (UniProt Q8N697)
inactive: crizotinib -0.169 | [2] -0.184 | duvelisib -0.071 | tozasertib 0.078 | [9] -0.104 | doramapimod -0.063 | ispinesib -0.268 | bafetinib -0.041 | nilotinib -0.032 | [4] -0.023 | dasatinib 0.12 | [5] 0.167 | [6] 0.079 | [7] 0.029 | tipifarnib 0.092 | mubritinib -0.164

SLC39A1 (UniProt Q9NY26)
inactive: [2] 0.023 | gandotinib -0.137 | [3] 0.116 | [6] -0.17

SLC25A14 isoform 3 (UniProt O95258)
inactive: crizotinib -0.043 | [2] -0.254 | duvelisib 0.002 | gandotinib -0.07 | tozasertib -0.025 | [9] -0.049 | doramapimod 0.034 | ispinesib -0.116 | bafetinib -0.094 | [3] 0 | nilotinib 0.042 | [4] -0.049 | dasatinib 0.069 | [5] -0.052 | [6] 0.074 | [7] -0.022 | tipifarnib 0.015 | mubritinib -0.009

SLC50A1 (UniProt Q9BRV3)
inactive: crizotinib 0 | duvelisib 0.391 | [9] -0.389 | doramapimod -0.011 | ispinesib -0.209 | bafetinib -0.28 | dasatinib 0.542 | [7] -0.073 | tipifarnib 0.238 | mubritinib 0.002

SLC10A3 (UniProt P09131)
inactive: [8] 0.028 | tozasertib -0.092 | bafetinib -0.114 | nilotinib -0.041 | [4] -0.082 | [5] 0.041 | mubritinib -0.152

SLC22A4 (UniProt Q9H015)
inactive: [8] 0.063 | [2] -0.121 | duvelisib 0.043 | tozasertib -0.054 | [9] -0.096 | ispinesib 0.043 | dasatinib 0.04 | [6] 0.14 | [7] -0.037 | tipifarnib 0.054

SLC26A2 (UniProt P50443)
inactive: crizotinib 0.051 | [8] 0.059 | duvelisib -0.174 | gandotinib -0.091 | [9] 0.06 | doramapimod 0.084 | [3] -0.286 | nilotinib 0.129 | [4] 0.083 | dasatinib -0.081 | [5] 0.107 | mubritinib -0.048

SLC36A1 (UniProt E5RG64)
inactive: bafetinib -0.892

SLC31A1 (UniProt O15431)
inactive: crizotinib 0.013 | [8] 0.093 | [2] -0.233 | duvelisib 0.036 | gandotinib -0.013 | tozasertib -0.031 | [9] -0.035 | doramapimod -0.087 | ispinesib -0.037 | bafetinib 0.036 | [3] 0.005 | dasatinib 0.008 | [6] -0.003 | [7] 0.053 | tipifarnib 0.118 | mubritinib -0.022

SLC3A2 (UniProt F5H867)
inactive: [1] -0.024 | [8] 0.094 | duvelisib 0.097 | gandotinib -0.181 | tozasertib -0.114 | [9] -0.175 | bafetinib -0.078 | [3] -0.198 | nilotinib -0.122 | [4] -0.213 | dasatinib 0.053 | [5] -0.182 | tipifarnib 0.058 | mubritinib 0.088

SLC35E3 (UniProt Q7Z769)
inactive: [1] -0.276 | [8] 0.244 | duvelisib 0.123 | tozasertib 0.003 | [9] 0.067 | nilotinib -0.164 | [4] -0.103 | dasatinib -0.198 | [5] 0.055 | tipifarnib 0.163

SLC10A7 isoform 1 (UniProt Q0GE19)
inactive: tozasertib 0 | ispinesib 0.16 | bafetinib 0.022 | nilotinib 0.063 | [4] -0.121 | [5] -0.256 | [7] -0.085 | tipifarnib -0.087 | mubritinib -0.038

SLC43A3 (UniProt Q8NBI5)
inactive: [1] 0.098 | [8] 0.24 | tipifarnib 0.009

SLC35G1 (UniProt Q2M3R5)
inactive: tozasertib 0.034

SLC39A9 (UniProt Q9NUM3)
inactive: [2] 0.049 | tozasertib 0.031 | [6] 0.159

SLC3A2 (UniProt F5GZS6)
inactive: crizotinib 0.184 | [8] -0.084 | duvelisib -0.055 | tozasertib -0.149 | [9] -0.35 | doramapimod -0.237 | ispinesib 0.362 | bafetinib -0.241 | nilotinib 0.068 | [4] -0.116 | dasatinib 0.26 | [5] 0.041 | [7] -0.224 | tipifarnib 0.187 | mubritinib 0.135

SLC66A2 (UniProt Q8N2U9)
inactive: [8] 0.136 | bafetinib -0.126 | nilotinib -0.049 | [4] 0.205 | [5] -0.057 | mubritinib -0.344

SLC4A3 isoform 3 (UniProt P48751)
inactive: bafetinib 0.072 | nilotinib -0.198 | [4] 0.044 | [5] -0.205 | mubritinib 0.06

SLC22A5 isoform 3 (UniProt O76082)
inactive: crizotinib 0.256 | [8] -0.252 | gandotinib -0.088 | doramapimod -0.001 | bafetinib 0.272 | [3] 0.051 | nilotinib -0.046 | [4] -0.051 | [5] -0.022 | tipifarnib 0.002

SLC35C2 isoform 3 (UniProt Q9NQQ7)
inactive: crizotinib -0.049 | [8] 0.08 | [2] 0.104 | doramapimod 0.097 | ispinesib 0.039 | bafetinib -0.013 | nilotinib -0.181 | [4] 0.319 | [5] 0.077 | [6] -0.11 | [7] -0.029

SLC6A19 (UniProt Q695T7)
inactive: [2] -0.053 | duvelisib 0.156 | [9] -0.062 | dasatinib -0.014 | [6] -0.16 | tipifarnib 0.119 | mubritinib 0.093

SLC66A1 (UniProt Q6ZP29)
inactive: bafetinib -0.219 | nilotinib 0.134 | [4] 0.079 | [5] -0.039 | mubritinib -0.204

SLC22A23 (UniProt A1A5C7)
inactive: crizotinib 0.042 | [2] -0.353 | duvelisib -0.164 | gandotinib 0.019 | [9] 0.265 | doramapimod 0.013 | ispinesib -0.096 | [3] -0.132 | dasatinib 0.081 | [6] 0.297 | [7] -0.014 | tipifarnib 0.171 | mubritinib -0.044

SLC52A2 (UniProt Q9HAB3)
inactive: gandotinib 0.056 | tozasertib 0.229 | bafetinib 0.074 | [3] 0.277 | nilotinib 0.079 | [4] 0.014 | [5] -0.02 | mubritinib 0

SLC35A5 (UniProt Q9BS91)
inactive: [8] -0.085 | [2] -0.02 | duvelisib 0.051 | tozasertib -0.035 | [9] 0.184 | dasatinib 0.03 | [6] 0.045

SLC1A3 (UniProt P43003)
inactive: [8] 0.167 | [2] -0.039 | gandotinib -0.042 | [9] 0.201 | ispinesib 0.126 | bafetinib -0.051 | [3] 0.013 | nilotinib 0.131 | [4] -0.063 | dasatinib -0.203 | [5] -0.077 | [6] 0.133 | [7] -0.009 | tipifarnib 0.054 | mubritinib 0.096

Reprinted at random: 3 entries already listed
SLC6A19 (UniProt Q695T7)
inactive: [2] -0.053 | duvelisib 0.156 | [9] -0.062 | dasatinib -0.014 | [6] -0.16 | tipifarnib 0.119 | mubritinib 0.093

SLC22A23 (UniProt A1A5C7)
inactive: crizotinib 0.042 | [2] -0.353 | duvelisib -0.164 | gandotinib 0.019 | [9] 0.265 | doramapimod 0.013 | ispinesib -0.096 | [3] -0.132 | dasatinib 0.081 | [6] 0.297 | [7] -0.014 | tipifarnib 0.171 | mubritinib -0.044

SLC52A2 (UniProt Q9HAB3)
inactive: gandotinib 0.056 | tozasertib 0.229 | bafetinib 0.074 | [3] 0.277 | nilotinib 0.079 | [4] 0.014 | [5] -0.02 | mubritinib 0

More entries.

SLC25A28 (UniProt Q96A46)
inactive: [1] -0.012 | bafetinib -0.001 | nilotinib -0.207 | [4] 0.014 | [5] 0.079 | tipifarnib 0.141

SLC36A4 (UniProt Q6YBV0)
inactive: [8] -0.439 | ispinesib 0.196 | bafetinib 0.025 | [7] -0.145 | mubritinib 0.234

SLC35D1 (UniProt Q9NTN3)
inactive: [2] -0.191 | tozasertib 0.045 | [6] 0 | tipifarnib -0.273

SLC26A11 (UniProt I3L0N9)
inactive: bafetinib 0.094

SLC46A1 (UniProt Q96NT5)
inactive: [2] -0.047 | gandotinib -0.006 | [3] -0.016 | [6] -0.119

SLC66A3 (UniProt Q8N755)
inactive: [1] -0.238 | [8] -0.223 | nilotinib -0.045 | [4] -0.211 | [5] 0.075 | mubritinib -0.108
